This passage reports binding results from PMC8632965.

Sequences of proteins named here, by UniProt entry; tags and fusion partners are left off. A change or cut given only in a name is not applied to a line headed by its entry. A line that says so, or that is headed by a name, gives the form on record, which may keep a tag or linker.
UniProt Q03135: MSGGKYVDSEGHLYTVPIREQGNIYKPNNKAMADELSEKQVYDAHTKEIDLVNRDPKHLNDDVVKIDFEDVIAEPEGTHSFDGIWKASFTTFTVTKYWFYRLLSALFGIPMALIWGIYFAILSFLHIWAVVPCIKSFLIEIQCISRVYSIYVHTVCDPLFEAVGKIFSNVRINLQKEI
extracellular portion of CD147 (ECD), amino acids 22–205 (P35613-2, form named): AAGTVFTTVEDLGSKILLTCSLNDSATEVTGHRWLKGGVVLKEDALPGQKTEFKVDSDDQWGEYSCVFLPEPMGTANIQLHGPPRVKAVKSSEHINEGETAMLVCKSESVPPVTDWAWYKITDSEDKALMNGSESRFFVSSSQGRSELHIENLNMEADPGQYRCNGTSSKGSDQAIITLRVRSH

No constants are given. Whether binding was seen depends on the method and setting. Some results given as binding are weak or reduced against the parent protein; the word gives no strength.

This assay concerns the target caveolin-1 protein (UniProt Q03135). Nature of the assay: SPR; interruption experiment: CD147-5A12Fab complex (isolated by size exclusion chromatography) injected over CM5 chips with BSA, CD98 and caveolin-1 immobilised separately; Biacore T200; both purified.

As to “extracellular portion of CD147 (ECD), amino acids 22–205 (from UniProt P35613-2 22-205) (domain or fragment)”, the binding entry is “binds”.
